PubChem BioAssay AID288 (DTP/NCI, 2004)
The list does not hold the whole screen: it gathers tests that were run many times, whatever their T/C, doses with no T/C, and many T/C values between a quarter and a half above the control. Further doses and runs are listed elsewhere. T/C: endpoint of the treated group in % of that of the vehicle group. Schedules are NCI's codes, taken here to give the interval after Q, in days (D) or hours (H), and the number of doses after X. Some doses have a count of surviving animals in place of a T/C: the source holds a T/C of zero for them, seemingly a mark for toxic or unscored doses. Counts of survivors are from the toxicity check (mostly the fifth day) where no day follows; animals may have died later. Where survival is the endpoint, the PubChem record calls one and a half times the control and up active, and a quarter to a half above the control has no call in these data; cut-offs in other NCI protocols can differ. Numbered stars: 1 amine (or outer) side, 2 acyl side, 3 side chain; on linkers, the order of the positions; unused ones are H or OH. Bridge positions count the residues as written; N and C are the ends. Square brackets hold non-standard residues; d marks the D form. Peptide text beside a SMILES is read from it. I, II: the chains in the order shown. * marks the point of attachment. ξ: configuration not given here. Quinaldoyl(3-OH,6-OMe) = COc1ccc2nc(C(=O)*)c(O)cc2c1; X1 = CCC(=O)OC1CC=NN([*:1])C1C(=O)[*:2]; X2 = CC(=O)OC1CC=NN([*:1])C1C(=O)[*:2]; ξNMeVal(3-OH) = CNC(C(=O)O)C(C)(C)O; Sar = CNCC(=O)O

System: BDF1 mice, M5076 sarcoma s.c., survival/tumor T/C
Assay: NCI In Vivo Anticancer Drug Screen. Data for tumor model Sarcoma M5076 (subcutaneous) in B6D2F1 (BDF1) mice
Description: The antitumor activity of compounds was measured in mice bearing transplantable tumors. Survival or tumor size were measured and the results are expressed as the measurement made in the treated group (T) divided by the measurement made in the vehicle treated control group (C). The tumor model used in this assay is Sarcoma M5076 (subcutaneous) in B6D2F1 (BDF1) mice

In the case of `O=C(O)CCCc1ccc(N(CCCl)CCCl)cc1`, the survivor count (T/C endpoint: median survival time, dose: 6.0 mg/kg/injection, schedule: Q02DX033 (ip), vehicle: saline with Tween-80, higher T/C = longer survival) is reported as 5 of 10 on day 16, the survivor count (T/C endpoint: median survival time, dose: 12.0 mg/kg/injection, schedule: Q02DX033 (ip), vehicle: saline with Tween-80, higher T/C = longer survival) is reported as 0 of 10 on day 16 and the survivor count (T/C endpoint: median survival time, dose: 24.0 mg/kg/injection, schedule: Q04DX006 (ip), vehicle: saline with Tween-80, higher T/C = longer survival) is reported as 6 of 10 on day 16.

For `COc1cc(C(C)(C)C)cc(OC)c1C(O)(c1c(OC)cc(C(C)(C)C)cc1OC)c1c(OC)cc(C(C)(C)C)cc1OC`, the survivor count (T/C endpoint: median survival time, dose: 200.0 mg/kg/injection, schedule: Q04DX003 (ip), vehicle: saline with Tween-80, higher T/C = longer survival) was 6 of 10 on day 57 and the survivor count (T/C endpoint: median survival time, dose: 400.0 mg/kg/injection, schedule: Q04DX003 (ip), vehicle: saline with Tween-80, higher T/C = longer survival) was 0 of 10 on day 57.

In the case of `OCCNCCN=C1CCC(=NCCNCCO)CC1`, the survivor count (T/C endpoint: median survival time, dose: 200.0 mg/kg/injection, schedule: Q01DX009 (ip), vehicle: saline with Tween-80, higher T/C = longer survival) is reported as 0 of 10 on day 9 and the survivor count (T/C endpoint: median tumor weight (est.), dose: 200.0 mg/kg/injection, schedule: Q01DX009 (ip), vehicle: saline with Tween-80, higher T/C = larger tumour) is reported as 0 of 10 on day 20.

`OC(C1CO1)C(O)C1CO1` (stereo not drawn) was tested, and the survivor count (T/C endpoint: mean tumor weight, dose: 8.0 mg/kg/injection, schedule: Q02DX011 (ip), vehicle: saline, higher T/C = larger tumour) was 0 of 10 on day 22, the T/C (T/C endpoint: median survival time, dose: 4.0 mg/kg/injection, schedule: Q01DX009 (ip), vehicle: saline, higher T/C = longer survival) was 144 % of control and the survivor count (T/C endpoint: median survival time, dose: 8.0 mg/kg/injection, schedule: Q01DX009 (ip), vehicle: saline, higher T/C = longer survival) was 0 of 10 on day 9. The survivor count (T/C endpoint: median survival time, dose: 16.0 mg/kg/injection, schedule: Q01DX009 (ip), vehicle: saline, higher T/C = longer survival) was 0 of 10 on day 9, the survivor count (T/C endpoint: median tumor weight (est.), dose: 4.0 mg/kg/injection, schedule: Q01DX009 (ip), vehicle: saline, higher T/C = larger tumour) was 6 of 10 on day 20 and the survivor count (T/C endpoint: median tumor weight (est.), dose: 8.0 mg/kg/injection, schedule: Q01DX009 (ip), vehicle: saline, higher T/C = larger tumour) was 0 of 10 on day 20. The survivor count (T/C endpoint: median tumor weight (est.), dose: 8.0 mg/kg/injection, schedule: Q02DX011 (ip), vehicle: saline, higher T/C = larger tumour) was 0 of 10 on day 22 and the survivor count (T/C endpoint: median tumor weight (est.), dose: 16.0 mg/kg/injection, schedule: Q01DX009 (ip), vehicle: saline, higher T/C = larger tumour) was 0 of 10 on day 20.

In the case of `NC(=O)c1csc(C2OC(CO)C(O)C2O)n1` (stereo not drawn), the T/C (T/C endpoint: median tumor weight (est.), dose: 37.5 mg/kg/injection, schedule: Q01DX009 (ip), vehicle: saline, evaluated on day 17, higher T/C = larger tumour) is reported as 133 % of control and the survivor count (T/C endpoint: median tumor weight (est.), dose: 600.0 mg/kg/injection, schedule: Q01DX009 (ip), vehicle: saline, higher T/C = larger tumour) is reported as 6 of 10 on day 17.

In the case of `CN(C)S(=O)(=O)c1ccc(CCCCc2ccc(N3C(N)=NC(N)=NC3(C)C)cc2Cl)c(Cl)c1`, the survivor count (T/C endpoint: median survival time, dose: 62.0 mg/kg/injection, schedule: Q01DX009 (ip), vehicle: saline with Tween-80, higher T/C = longer survival) is reported as 0 of 10, the survivor count (T/C endpoint: median survival time, dose: 100.0 mg/kg/injection, schedule: Q01DX009 (ip), vehicle: saline with Tween-80, higher T/C = longer survival) is reported as 0 of 10 and the survivor count (T/C endpoint: median survival time, dose: 160.0 mg/kg/injection, schedule: Q01DX009 (ip), vehicle: saline with Tween-80, higher T/C = longer survival) is reported as 0 of 10.

For `CCC(=O)OC1CC=NN2C(=O)C(NC(=O)c3nc4ccc(OC)cc4cc3O)COC(=O)C(C(C)(C)O)N(C)C(=O)CN(C)C(=O)CNC(=O)C3C(OC(C)=O)CC=NN3C(=O)C(NC(=O)c3nc4ccc(OC)cc4cc3O)COC(=O)C(C(C)(C)O)N(C)C(=O)CN(C)C(=O)CNC(=O)C12` (stereo not drawn) (I: {Quinaldoyl(3-OH,6-OMe)}-S[X1]G[Sar][ξNMeVal(3-OH)] / II: {Quinaldoyl(3-OH,6-OMe)}-S[X2]G[Sar][ξNMeVal(3-OH)]; ester I:1-II:C, I:C-II:1; configuration not given here), the survivor count (T/C endpoint: median survival time, dose: 37.5 micrograms/kg/injection, schedule: Q01DX009 (ip), vehicle: Klucel (hydroxypropylcellulose) (HPC), higher T/C = longer survival) was 2 of 10 on day 9, the survivor count (T/C endpoint: median survival time, dose: 75.0 micrograms/kg/injection, schedule: Q01DX009 (ip), vehicle: Klucel (hydroxypropylcellulose) (HPC), higher T/C = longer survival) was 0 of 10 on day 9 and the survivor count (T/C endpoint: median survival time, dose: 150.0 micrograms/kg/injection, schedule: Q01DX009 (ip), vehicle: Klucel (hydroxypropylcellulose) (HPC), higher T/C = longer survival) was 0 of 10 on day 9. The survivor count (T/C endpoint: median survival time, dose: 300.0 micrograms/kg/injection, schedule: Q01DX009 (ip), vehicle: Klucel (hydroxypropylcellulose) (HPC), higher T/C = longer survival) was 0 of 10 on day 9, the survivor count (T/C endpoint: median tumor weight (est.), dose: 37.5 micrograms/kg/injection, schedule: Q01DX009 (ip), vehicle: DMSO, higher T/C = larger tumour) was 1 of 10 on day 20 and the survivor count (T/C endpoint: median tumor weight (est.), dose: 75.0 micrograms/kg/injection, schedule: Q01DX009 (ip), vehicle: DMSO, higher T/C = larger tumour) was 0 of 10 on day 20. The survivor count (T/C endpoint: median tumor weight (est.), dose: 150.0 micrograms/kg/injection, schedule: Q01DX009 (ip), vehicle: DMSO, higher T/C = larger tumour) was 0 of 10 on day 20 and the survivor count (T/C endpoint: median tumor weight (est.), dose: 300.0 micrograms/kg/injection, schedule: Q01DX009 (ip), vehicle: DMSO, higher T/C = larger tumour) was 0 of 10 on day 20.
